Test results published in article PMC10279920, “Single-molecule visualization of Pif1 helicase translocation on single-stranded DNA” (The Journal of Biological Chemistry, 2023).

Experiments:
Assay in all cases: EMSA
Details in all cases: no ATP, 5 mM Mg2+, 35 mM Tris-HCl pH 7.5, 1 mM DTT, 5 mM MgCl2, 60 mM KCl, 0.1 mg/ml BSA, 30 min at 30 C, 5 nM ssDNA, recombinant protein, residues 40-859, protein details: N-terminal superfolder GFP, Ni-NTA purified, label: 5' Alexa647, single-stranded DNA
[1] = molecular target: T1, GFP-Pif1 N533A (Saccharomyces cerevisiae) (UniProt P07271)
T1 sequence (looked up): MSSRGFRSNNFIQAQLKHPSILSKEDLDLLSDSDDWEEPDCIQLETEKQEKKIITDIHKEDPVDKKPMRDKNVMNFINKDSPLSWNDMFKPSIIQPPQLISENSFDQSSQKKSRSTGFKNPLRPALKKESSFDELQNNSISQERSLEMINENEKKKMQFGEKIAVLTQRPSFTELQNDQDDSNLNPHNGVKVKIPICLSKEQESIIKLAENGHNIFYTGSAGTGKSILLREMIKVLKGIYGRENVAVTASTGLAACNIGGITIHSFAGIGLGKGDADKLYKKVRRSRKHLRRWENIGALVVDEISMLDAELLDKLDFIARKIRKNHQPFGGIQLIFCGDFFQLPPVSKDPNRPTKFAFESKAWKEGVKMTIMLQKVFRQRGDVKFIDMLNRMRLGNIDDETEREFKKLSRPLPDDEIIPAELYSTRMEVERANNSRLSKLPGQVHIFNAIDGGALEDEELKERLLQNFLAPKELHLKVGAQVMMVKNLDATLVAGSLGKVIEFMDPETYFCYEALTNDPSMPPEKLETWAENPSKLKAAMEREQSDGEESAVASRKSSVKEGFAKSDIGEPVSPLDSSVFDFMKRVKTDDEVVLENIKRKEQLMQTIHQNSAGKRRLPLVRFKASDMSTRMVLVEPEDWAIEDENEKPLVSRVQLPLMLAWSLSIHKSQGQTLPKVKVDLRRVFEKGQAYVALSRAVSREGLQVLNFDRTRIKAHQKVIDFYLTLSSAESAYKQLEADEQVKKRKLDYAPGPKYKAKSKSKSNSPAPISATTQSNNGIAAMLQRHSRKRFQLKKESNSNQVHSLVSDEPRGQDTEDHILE

[2] = molecular target: T2, GFP-Pif1 H303A (Saccharomyces cerevisiae) (UniProt P07271)
T2 sequence (looked up): T1 sequence (looked up) with H264A, A494N

[3] = molecular target: T3, GFP-Pif1 V385A (Saccharomyces cerevisiae) (UniProt P07271)
T3 sequence (looked up): T1 sequence (looked up) with V346A, A494N

Measured: binding result

GCTAGCAGTAGCCAGCATCGAACGTACGATCGGTAACGTA [40-nt ssDNA]
binds more weakly: all assays above

Substitutions are numbered along the chain they refer to. The comparison behind a weaker result is the experiment's own reference, which may not be listed here. Where a protein sequence is shown, tags need not be part of it. For part of these data: The exact form of at least one protein or probe is not confirmed. For part of these data: At least one verdict rests on a figure or table, not on a statement of the authors.
